Laboratory results from publication PMC6453981.
These are yes or no findings as the source states them, for the method shown. In cells and extracts the contact can be indirect. Some results given as binding are weak or reduced against the parent protein; the word gives no strength.

By UniProt entry, the sequences of proteins in these tests, tags left out. Residues count along the entry.
UniProt P35968, residues 20-1356: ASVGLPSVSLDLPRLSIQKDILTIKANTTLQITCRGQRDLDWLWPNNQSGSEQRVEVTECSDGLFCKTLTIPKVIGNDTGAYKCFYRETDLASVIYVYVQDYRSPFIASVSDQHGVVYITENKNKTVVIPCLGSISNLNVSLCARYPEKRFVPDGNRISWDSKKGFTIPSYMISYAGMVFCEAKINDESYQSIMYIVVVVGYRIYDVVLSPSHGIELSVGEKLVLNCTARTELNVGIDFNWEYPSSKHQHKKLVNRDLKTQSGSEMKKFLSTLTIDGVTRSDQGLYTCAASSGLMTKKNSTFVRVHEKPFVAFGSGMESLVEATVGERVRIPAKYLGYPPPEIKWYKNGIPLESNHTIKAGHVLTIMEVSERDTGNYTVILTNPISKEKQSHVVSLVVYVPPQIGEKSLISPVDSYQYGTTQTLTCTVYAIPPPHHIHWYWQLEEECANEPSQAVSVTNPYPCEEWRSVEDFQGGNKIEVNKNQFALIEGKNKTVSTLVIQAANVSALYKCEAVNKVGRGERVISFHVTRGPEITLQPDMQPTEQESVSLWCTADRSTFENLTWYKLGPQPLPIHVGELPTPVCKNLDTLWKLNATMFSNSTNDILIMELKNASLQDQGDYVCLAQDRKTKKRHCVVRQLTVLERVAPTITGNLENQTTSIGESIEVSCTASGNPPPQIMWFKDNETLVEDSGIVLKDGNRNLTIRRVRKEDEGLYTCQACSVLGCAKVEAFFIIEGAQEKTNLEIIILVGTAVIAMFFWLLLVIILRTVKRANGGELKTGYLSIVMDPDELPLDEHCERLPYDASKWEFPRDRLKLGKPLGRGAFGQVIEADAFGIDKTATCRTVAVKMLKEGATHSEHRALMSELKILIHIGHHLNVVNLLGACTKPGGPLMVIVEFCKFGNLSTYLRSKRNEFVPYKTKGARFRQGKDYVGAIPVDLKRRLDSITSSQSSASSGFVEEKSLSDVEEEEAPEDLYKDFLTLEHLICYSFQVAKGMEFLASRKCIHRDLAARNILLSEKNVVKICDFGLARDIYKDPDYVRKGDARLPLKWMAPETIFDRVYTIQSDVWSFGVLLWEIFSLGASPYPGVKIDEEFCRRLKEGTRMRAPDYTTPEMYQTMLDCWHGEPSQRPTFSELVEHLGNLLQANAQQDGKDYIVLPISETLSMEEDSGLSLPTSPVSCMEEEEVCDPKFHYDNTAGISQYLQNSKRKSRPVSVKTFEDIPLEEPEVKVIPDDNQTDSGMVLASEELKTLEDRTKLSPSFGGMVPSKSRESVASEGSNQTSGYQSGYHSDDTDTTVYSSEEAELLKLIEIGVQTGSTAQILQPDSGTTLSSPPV
UniProt O76054: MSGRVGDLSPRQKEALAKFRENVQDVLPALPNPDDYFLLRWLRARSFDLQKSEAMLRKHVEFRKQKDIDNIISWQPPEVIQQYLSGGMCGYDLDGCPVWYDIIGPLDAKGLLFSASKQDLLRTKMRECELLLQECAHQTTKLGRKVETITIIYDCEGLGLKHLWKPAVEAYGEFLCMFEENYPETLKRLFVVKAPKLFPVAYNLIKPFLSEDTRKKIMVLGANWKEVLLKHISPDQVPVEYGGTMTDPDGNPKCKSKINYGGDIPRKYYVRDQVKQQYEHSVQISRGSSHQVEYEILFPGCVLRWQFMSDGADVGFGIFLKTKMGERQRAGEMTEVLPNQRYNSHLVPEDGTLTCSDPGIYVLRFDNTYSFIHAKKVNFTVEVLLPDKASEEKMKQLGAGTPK

Target: endogenous VEGFR2 (human (endogenous in HUVECs)) (UniProt P35968)
Test: co-IP; endogenous proteins in HUVECs; for VEGFR2 cells starved and stimulated with 100 ng/ml VEGFa for 5 min; IgG as negative control; TNE buffer

## endogenous SEC14L2 (from UniProt O76054 1-403)
  binding: binds
